Construct, isoform or probe ends are uncertain for at least one entry. Where a protein sequence is shown, tags need not be part of it.
Molecular target: T1, Pab DNA polymerase (Pyrococcus sp. GE 5) (Pyrococcus abyssi GE5) (UniProt P0CL77)
T1 sequence: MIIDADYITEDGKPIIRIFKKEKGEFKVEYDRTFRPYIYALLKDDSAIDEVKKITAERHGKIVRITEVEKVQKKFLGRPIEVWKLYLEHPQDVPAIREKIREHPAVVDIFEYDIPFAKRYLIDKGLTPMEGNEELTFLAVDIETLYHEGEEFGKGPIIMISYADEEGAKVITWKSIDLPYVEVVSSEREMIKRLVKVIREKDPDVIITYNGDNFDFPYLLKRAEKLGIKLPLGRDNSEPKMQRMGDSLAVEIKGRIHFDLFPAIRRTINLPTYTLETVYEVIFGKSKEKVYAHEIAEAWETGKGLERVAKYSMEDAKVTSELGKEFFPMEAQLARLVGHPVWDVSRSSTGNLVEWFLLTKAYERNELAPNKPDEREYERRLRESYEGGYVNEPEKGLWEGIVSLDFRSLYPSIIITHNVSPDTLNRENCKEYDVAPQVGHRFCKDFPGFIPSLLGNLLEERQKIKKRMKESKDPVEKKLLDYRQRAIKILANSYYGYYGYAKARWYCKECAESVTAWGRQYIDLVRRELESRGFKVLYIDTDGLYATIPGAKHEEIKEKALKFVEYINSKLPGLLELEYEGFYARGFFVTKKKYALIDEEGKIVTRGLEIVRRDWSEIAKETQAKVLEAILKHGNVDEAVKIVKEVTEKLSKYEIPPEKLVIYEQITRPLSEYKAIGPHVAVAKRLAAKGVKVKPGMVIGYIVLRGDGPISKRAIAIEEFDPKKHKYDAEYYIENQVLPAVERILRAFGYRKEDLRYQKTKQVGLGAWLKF
Experiment: binding assay
Details: PCR, 420-bp product from 0.5 ng to 1 ug template; 3 mM MgSO4, 50 mM KCl, pH 9.0; purified recombinant protein; only the site is given

TCACCTTAGGGTTGCCCATAA / TGGGCATAAAAGTCAGGGCAG
binding result: binds

Reference: US6673585
